# Literature values, collected in patent US20260174748A1, “AGENT FOR ALLEVIATING CLOZAPINE-INDUCED SIALORRHEA” (National University Corporation Chiba University, priority 2022, published 2026).
# At least one compound was matched to its structure with a doubt left.
# Details: cited from earlier work
smiles,measurement,value
COc1ccc2c(c1)[C@]13CCCC[C@@H]1[C@H](C2)N(C)CC3 [dextromethorphan],half-life in humans,3.2±0.3 to 3.6±0.3
